From PubChem BioAssay AID2685 (National Center for Advancing Translational Sciences (NCATS), 2010) come the findings set out here.

Structures are written as SMILES. The list shows a part of the results. The main result of the screen is listed elsewhere. These columns were measured beside it and carry no call. Most of these compounds were active or inconclusive in the main read-out, so they are no random draw. The note in brackets gives the kind of curve behind each potency; many fits are weak.

The experiment in a line: qHTS Assay for Lipid Storage Modulators in Drosophila S3 Cells.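 As to cell number change: cells counted by Cell Tracker Red CMTPX staining in the red channel.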 As to conditions: BODIPY lipid droplet fluorescence, 18-24 h; for cell number change: measured here: cell count max response, cells fed with added oleic acid. Put shortly: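 Drosophila S3 cells got compounds at several concentrations plus oleic acid (400 uM solution). Laser-scanning cytometry with 488 nm excitation read lipid droplets at 500-530 nm and cells at 575-640 nm. Percent activity was relative to 20 uM Triacsin C.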
In general terms: qHTS replaces the single test concentration by a dilution series.

Where [1] appears, read: measured here: cell number channel AC50, cells fed with added oleic acid.
[2] abbreviates: measured here: lipid fluorescence (Fed channel) AC50, cells fed with added oleic acid.

For `Cc1nnc(SCC(=O)NNC(=O)COc2ccc(Cl)cc2)n1C`, the cell number change was found to be 10.7%. For the molecule `Cc1ccc(C)c(NC(=O)COC(=O)c2ccc3ccccc3n2)c1`, the cell number change is -31.8%. Also, the AC50 under setting [1] is 20.6 µM [falling, single point]. Consider `Cc1ccc(S(=O)(=O)N2CCOCC2)cc1NC(=O)COc1ccc(C(=O)c2ccccc2)cc1`, for which the AC50 under setting [2] is 3.66 µM [falling, partial curve].

On to `CC(=O)Nc1cccc(C(=O)OC(C)C(=O)NCc2ccc3c(c2)OCO3)c1` (configuration not stated), for which the cell number change worked out at 6.62%. For the same molecule, under setting [2], the AC50 was 29.1 µM [falling, single point]. For `NC1=NC[C@H](Cc2ccccc2)N1CCCCC1CCCCC1`, the cell number change was -63.5%. In addition, the AC50 under setting [1] is 32.6 µM [falling, single point]. Further, the AC50 under setting [2] is 13 µM [falling, partial curve]. Regarding `CC(=O)Nc1ccc(-c2cc(C(=O)O)c3ccccc3n2)cc1`, the AC50 under setting [1] was 0.92 µM [falling, single point]. As to `Cc1c(S(=O)(=O)N2CCCC(C)C2)c(=O)n(C)c(=O)n1C` (configuration not stated), the cell number change was -6.87%. For the same molecule, the AC50 under setting [1] was 0.651 µM [falling, single point]. Further, under setting [2], the AC50 is 16.4 µM [falling, partial curve, poor fit]. On to `COc1cc(CNC(=O)CCn2nc(C)c3c(C)n(-c4ccccc4)nc3c2=O)cc(OC)c1OC`, for which the cell number change is -31.4%. Further, under setting [1], the AC50 is 29.1 µM [falling, single point]. With `COc1ccc(CNC(=O)Cc2cccs2)cc1`, the cell number change is -3.04%. In addition, under setting [2], the AC50 was 6.51 µM [rising, single point]. For the molecule `Cn1nc(-c2ccccc2)c2cc(C(=O)O)sc21`, the cell number change was 7.17%. Moreover, under setting [2], the AC50 was 0.116 µM [falling, full curve, poor fit]. For the molecule `CCN(CC(=O)Nc1c(F)cccc1F)C(=O)C1CC(=O)N(CCc2ccccc2)C1` (configuration not stated), the cell number change worked out at 18.3%. In addition, under setting [2], the AC50 is 7.31 µM [rising, partial curve, poor fit]. For the molecule `COC(=O)c1ccc(C2NC(=O)NC(C)=C2C(=O)N(C)C)cc1` (configuration not stated), the cell number change is -16%. The AC50 under setting [2] was 25.9 µM [falling, partial curve]. As to `O=C(CSCc1c(Cl)cccc1Cl)NN1C(=O)c2ccccc2C1=O`, the cell number change was -1.2%. Moreover, the AC50 under setting [2] was 29.1 µM [rising, single point].

Take `Cc1[nH]c2ccccc2c1C(=O)Cn1c(=O)oc2ccccc21`: the cell number change was found to be 18.5%. Under setting [2], the AC50 was 5.8 µM [rising, single point]. Take `Cc1csc(SCc2ccc(C(=O)O)cc2)n1`: the cell number change is 2.9%. For the molecule `Cn1c(CNS(=O)(=O)c2ccc(F)cc2)n[nH]c1=S`, the cell number change was -4.9%. Turning to `CC(=O)N/N=C(\C)C1COc2ccccc2O1` (configuration not stated), the cell number change was found to be 8.52%. Take `O=C(Nc1cccc(S(=O)(=O)NC2=NCCCCC2)c1)c1ccc(Cl)cc1`: the AC50 under setting [2] was 14.6 µM [falling, single point]. For the molecule `C/C(=N\O)C(=O)NCCN1CCCCC1`, the cell number change was -32.7%. Besides, the AC50 under setting [1] was 25.9 µM [falling, single point]. The AC50 under setting [2] was 10.3 µM [falling, partial curve].

Take `Cc1cc(NC(=O)c2cccs2)no1`: the cell number change was found to be 19%. Moreover, the AC50 under setting [2] was 7.31 µM [rising, partial curve, poor fit]. Regarding `Cc1ccccc1C(=O)Nc1nnc(-c2cccnc2)o1`, the cell number change was -15.7%. Further, the AC50 under setting [1] was 0.731 µM [falling, partial curve, poor fit]. Under setting [2], the AC50 is 0.651 µM [falling, single point]. Take `O=C(Nc1cnc2sccn2c1=O)c1ccccc1Cl`: the cell number change was -22.2%. For the same molecule, the AC50 under setting [1] is 0.231 µM [falling, full curve, poor fit]. For the molecule `NNc1ncnc2scc(-c3ccc(Cl)cc3)c12`, the cell number change was 34.2%. For the same molecule, the AC50 under setting [1] is 3.26 µM [rising, partial curve]. Besides, the AC50 under setting [2] was 4.11 µM [rising, partial curve]. For `S=c1nn[nH]n1C12CC3CC(CC(C3)C1)C2`, the cell number change was -4.82%.

As for `O=c1[nH]c2ccccc2cc1CN(Cc1ccco1)S(=O)(=O)c1ccc(F)cc1`, the cell number change was -24.5%. Under setting [2], the AC50 was 32.6 µM [falling, partial curve, poor fit].

With `CCOc1ccc(Cc2nnc(N)s2)cc1OCC`, the cell number change is 98%. In addition, under setting [1], the AC50 was 9.2 µM [rising, partial curve]. In addition, the AC50 under setting [2] is 3.66 µM [rising, partial curve].

For the molecule `COc1cccc(/C=N/n2cnc3ccccc32)c1OC`, the cell number change worked out at 65.4%. Under setting [1], the AC50 was 1.16 µM [rising, full curve]. Under setting [2], the AC50 was 1.46 µM [rising, partial curve]. Take `COc1ccc(C(=O)NCCN=C2NS(=O)(=O)c3ccccc32)cc1`: the cell number change is -14.5%. Further, the AC50 under setting [2] is 0.398 µM [falling, single point]. `COCCn1c(=NC(=O)c2ccc(S(=O)(=O)N3CCOCC3)cc2)sc2cc(S(N)(=O)=O)ccc21`: the cell number change was -37.7%. Further, the AC50 under setting [1] is 10.3 µM [falling, partial curve]. Take `COc1cccc(-c2ncc3ccccc3c2COC(=O)N2CCOCC2)c1`: the cell number change was -12%. Further, the AC50 under setting [2] was 0.116 µM [rising, full curve]. Regarding `CS(=O)(=O)N(CC(=O)Nc1ccccc1C(=O)NCc1ccco1)c1ccc2c(c1)OCCO2`, the AC50 under setting [1] is 1.16 µM [rising, partial curve]. As to `Cc1cc(C(=O)OCC(=O)N2CC(=O)Nc3ccccc32)no1`, the cell number change was -9.38%. In addition, the AC50 under setting [2] was 5.17 µM [falling, full curve, poor fit].

As for `Cc1cccc2sc(NC(=O)C3CC3)nc12`, the cell number change was -9.47%. For the molecule `O=C(c1ccc2nc(Cc3ccccc3F)oc2c1)N1CCCC1`, the cell number change is -9.97%. Besides, under setting [2], the concentration at half-maximal activity (AC50) was 0.00517 µM [falling, full curve, poor fit]. On to `Cc1cccc(N(C)S(=O)(=O)c2c(C)[nH]c(C)c2C(=O)N2CCCC2)c1`, for which, under setting [2], the AC50 is 29.1 µM [falling, single point]. On to `Cc1noc(C)c1S(=O)(=O)N1CCCC(C(=O)Nc2ccc(Cl)cn2)C1` (configuration not stated), for which the cell number change was -1.36%. Also, under setting [2], the AC50 is 7.31 µM [falling, single point]. For `CCOc1ccc(N(CC(=O)NC2CC2)S(=O)(=O)c2ccc(C)cc2)cc1`, the cell number change was found to be 22.6%. `COc1cc(OC)c(C(=O)OCC(=O)N2CCOCC2)cc1OC`: the AC50 under setting [2] was 0.231 µM [falling, full curve, poor fit].

As for `Cc1ccc(NC(=O)Cc2nc(COC(=O)Cc3cccc(C(F)(F)F)c3)cs2)cc1`, the cell number change is -8.08%. Also, the AC50 under setting [1] was 0.116 µM [falling, full curve, poor fit]. In the case of `COCCN(C(=O)C1CC(=O)N(Cc2ccccc2)C1)c1nc(-c2ccc([N+](=O)[O-])cc2)cs1` (configuration not stated), the cell number change was -5.33%. Further, under setting [2], the AC50 was 14.6 µM [falling, partial curve]. In the case of `Cc1ccc2cc(CCNC(=O)Cc3cccs3)c(=O)[nH]c2c1`, the cell number change is -1.97%. Further, under setting [2], the AC50 was 1.46 µM [rising, partial curve].

As for `COc1ccc(N(CC(=O)NCC2CCCO2)S(=O)(=O)c2ccc(C)cc2)cc1OC` (configuration not stated), the cell number change is -0.724%. The AC50 under setting [2] is 6.51 µM [falling, partial curve, poor fit]. As for `COc1ccc(OC)c(/C=N/NC(=O)CCc2c(C)n[nH]c2C)c1`, the cell number change came out at 17.4%. The AC50 under setting [2] is 3.66 µM [rising, partial curve, poor fit]. Take `Cc1sc2nc(CSc3ccccc3)nc(N3CCN(C)CC3)c2c1C`: the cell number change was -1.06%. `CCC(=O)N1CCc2cc(S(=O)(=O)CCC(=O)Nc3cccc(F)c3)ccc21`: the concentration at half-maximal activity (AC50) under setting [2] is 0.58 µM [falling, single point]. Regarding `Cc1cccc(C(=O)NCCCn2ccnc2)c1C`, under setting [1], the AC50 is 6.51 µM [falling, single point].

With `COc1cccc(C(=O)N2CCN(C(=O)c3cccc4ccccc34)CC2)c1OC`, the cell number change is -9.23%. Take `COc1cc(Cl)cc(C=O)c1OCC(=O)O`: the cell number change was -0.366%. In addition, the AC50 under setting [2] is 6.51 µM [falling, single point].

With `COC(=O)c1ccccc1NC(=O)c1ccc(F)cc1`, the cell number change is 1.22%. Also, under setting [2], the AC50 was 6.51 µM [rising, single point]. For `O=C(NCC(=O)N(Cc1ccco1)C(C(=O)NC1CCCC1)c1cccnc1)c1cccs1` (configuration not stated), the cell number change was 13.3%. Besides, the AC50 under setting [1] was 0.00411 µM [rising, full curve, poor fit]. In the case of `CCCCCc1ccc(OCCCC[n+]2ccccc2)c(CCCCC)c1`, the cell number change is -78.8%. In addition, the AC50 under setting [1] is 16.4 µM [falling, partial curve]. For the same molecule, the AC50 under setting [2] was 20.6 µM [falling, single point].

Take `COc1ccc(NC(=O)COC(=O)Cn2cnc3ccccc3c2=O)cc1OC`: the cell number change was determined as 2.23%. The AC50 under setting [2] is 0.13 µM [falling, full curve, poor fit]. `COC(=O)C(CCSC)NC(=O)C12CC3CC(CC(C3)C1)C2` (configuration not stated): the cell number change is -41.2%. Moreover, under setting [1], the AC50 was 8.2 µM [falling, partial curve]. The AC50 under setting [2] is 1.46 µM [falling, partial curve]. Regarding `O=c1sc2ccccc2n1COc1ccccc1`, the cell number change was determined as 0.128%. Also, under setting [2], the AC50 was 29.1 µM [rising, single point]. For the molecule `O=C(COC(=O)CNC(=O)c1ccccc1)Nc1ccc2c(c1)OCO2`, the cell number change turned out to be 5.41%. Further, under setting [2], the AC50 was 0.116 µM [rising, full curve, poor fit]. `CC(=O)NS(=O)(=O)c1ccc(NC(=O)CN2C(=O)C3C4C=CC(C4)C3C2=O)cc1` (configuration not stated): the cell number change was -66.7%. Besides, the AC50 under setting [1] is 0.58 µM [falling, full curve].

In the case of `Cc1ccc(C(=O)NCC(=O)OCC(=O)Nc2cc(C)c(C)cc2[N+](=O)[O-])cc1`, the cell number change is 33.4%. The AC50 under setting [1] was 29.1 µM [rising, single point]. The AC50 under setting [2] is 29.1 µM [rising, partial curve]. Take `CCOc1ccc(C(=O)N2CCN(c3cccc(C)c3C)CC2)cc1`: the cell number change was 47.4%. Also, the AC50 under setting [1] was 20.6 µM [rising, single point]. `Cc1cccc(NC(=O)COc2ccccc2C)n1`: the cell number change turned out to be 14.9%. The AC50 under setting [2] is 0.58 µM [rising, single point].

Take `COc1ccc(CCN2CC(C(=O)N(C)CC(=O)Nc3cccc(F)c3)CC2=O)cc1OC` (configuration not stated): the cell number change was determined as 23.7%. Moreover, the AC50 under setting [2] is 29.1 µM [rising, single point]. `O=C1OCCC1Sc1nc2cc(Cl)ccc2s1` (configuration not stated): the cell number change turned out to be 13%. Besides, the AC50 under setting [2] is 0.651 µM [falling, full curve, poor fit]. Consider `O=C(Cc1ccccc1)N1CCC(c2nc3ccccc3[nH]2)CC1`, for which the cell number change is 17.2%. In addition, the AC50 under setting [2] is 0.146 µM [falling, full curve, poor fit].

As usually defined, the AC50 is the concentration giving half of the maximal activity seen.
